Assay results as given in the supplement of paper PMC4604168 (melanoma cell lines).
This is one part of the list. Repeats are few or missing, and single values can be far off.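 The apoptosis fraction was the count of cleaved-PARP antibody-stained nuclei relative to all DNA-stained nuclei, imaged in 1,536-well plates. Screening doses were set so most cells survived, and baseline and induced cleaved-PARP levels vary greatly across cell lines.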

What was measured:
Assay in all cases: cleaved PARP positive nuclei fraction relative to DMSO control; melanoma cells; higher = more apoptosis
Conditions in all cases: library dose: low library concentration; 72 h
MZ2-MEL = system: MZ2-MEL
MeWo = system: MeWo
RPMI7951 = system: RPMI7951
RVH-421 = system: RVH-421
SkMel28 = system: SkMel28
SkMel2 = system: SkMel2
SkMel30 = system: SkMel30
SkMel5 = system: SkMel5
UACC257 = system: UACC257
UACC62 = system: UACC62

SMILES	cleaved PARP positive nuclei fraction (MZ2-MEL) [%]	cleaved PARP positive nuclei fraction (MeWo) [%]	cleaved PARP positive nuclei fraction (RPMI7951) [%]	cleaved PARP positive nuclei fraction (RVH-421) [%]	cleaved PARP positive nuclei fraction (SkMel28) [%]	cleaved PARP positive nuclei fraction (SkMel2) [%]	cleaved PARP positive nuclei fraction (SkMel30) [%]	cleaved PARP positive nuclei fraction (SkMel5) [%]	cleaved PARP positive nuclei fraction (UACC257) [%]	cleaved PARP positive nuclei fraction (UACC62) [%]
N.N.[Cl][Pt][Cl] [cisplatin] + COc1ccc(-c2ccc3c(N4CCOCC4)nc(N4C[C@@H](C)O[C@@H](C)C4)nc3n2)cc1CO [KU0063794] (first compound 1.6 µM, partner dose 0.02 µM)	121	264	69.5	104	142	130	131	80.6	181	63.4
Nc1ncn([C@H]2C[C@H](O)[C@@H](CO)O2)c(=O)n1 [decitabine] + C/C(O)=C(\C#N)C(=O)Nc1cc(Br)ccc1Br [LFM-A13] (first compound 0.1 µM, partner dose 2 µM)	151	155	183	40.9	181	116	98.5	39.7	184	117
Clc1ccc(Nc2nnc(Cc3ccncc3)c3ccccc23)cc1 [vatalanib] + C/C(O)=C(\C#N)C(=O)Nc1cc(Br)ccc1Br [LFM-A13] (first compound 2 µM, partner dose 2 µM)	122	55.5	95.1	104	214	34.8	45.9	125	85.8	32
Cc1cc(Nc2cc(N3CCN(C)CC3)nc(/C=C/c3ccccc3)n2)n[nH]1 + O=C(Oc1ccc([N+](=O)[O-])cc1)N1CCC(C(O)(c2ccc3c(c2)OCO3)c2ccc3c(c2)OCO3)CC1 [JZL184] (first compound 0.04 µM, partner dose 1 µM)	91.8	78.2	203	194	185	43.6	81.3	107	26.6	213
CCCCCCCCc1ccc(CCC(N)(CO)CO)cc1 [fingolimod] + O=C(Oc1ccc([N+](=O)[O-])cc1)N1CCC(C(O)(c2ccc3c(c2)OCO3)c2ccc3c(c2)OCO3)CC1 [JZL184] (first compound 2 µM, partner dose 1 µM)	123	130	69.9	140	153	87	31.9	83.7	182	228
O=C(/C=C/c1cccnc1)NCCCCC1CCN(C(=O)c2ccccc2)CC1 + Cc1cc(SCc2sc(-c3ccc(C(F)(F)F)c(F)c3)nc2C)ccc1OCC(=O)O [GW0742] (first compound 0.01 µM, partner dose 2 µM)	414	25.6	65.2	319	66.2	1950	104	85.4	94.4	105
CN1CCN(c2ccc3nc(-c4c(N)c5c(F)cccc5[nH]c4=O)[nH]c3c2)CC1 [Dovitinib] + C/C(O)=C(\C#N)C(=O)Nc1cc(Br)ccc1Br [LFM-A13] (first compound 0.1 µM, partner dose 2 µM)	145	49.1	44.3	100	455	19	159	71.6	69	146
Cn1cc(C2=C(c3cn(C4CCN(Cc5ccccn5)CC4)c4ccccc34)C(=O)NC2=O)c2ccccc21 [Enzastaurin] + Oc1cc(-c2nc(-c3ccccc3)[nH]c2-c2ccncc2)ccc1Cl [L779450] (first compound 0.8 µM, partner dose 0.2 µM)	118	67.8	232	106	192	67.5	112	62.3	75.8	128
Cc1cn(-c2cc(NC(=O)c3ccc(C)c(Nc4nccc(-c5cccnc5)n4)c3)cc(C(F)(F)F)c2)cn1 [nilotinib] + Cc1cc(SCc2sc(-c3ccc(C(F)(F)F)c(F)c3)nc2C)ccc1OCC(=O)O [GW0742] (first compound 0.2 µM, partner dose 2 µM)	131	63.1	79.4	89.4	86.6	81.4	377	68.6	96	67.5
Cn1cc(C2=C(c3cn(C4CCN(Cc5ccccn5)CC4)c4ccccc34)C(=O)NC2=O)c2ccccc21 [Enzastaurin] + CCCCCCCCCCCC1=C(O)C(=O)C=C(O)C1=O [Embelin] (first compound 0.8 µM, partner dose 1.2 µM)	129	68	72.5	102	130	184	157	155	84.1	103
CCCCCCCCCCCCCCCCCCOP(=O)([O-])OC1CC[N+](C)(C)CC1 [Perifosine] + C/C(O)=C(\C#N)C(=O)Nc1cc(Br)ccc1Br [LFM-A13] (first compound 0.4 µM, partner dose 2 µM)	127	87	104	175	200	90.3	116	86.6	214	70.8
O=C(Nc1cc(C(F)(F)F)cc(C(F)(F)F)c1)c1cc(Cl)ccc1O + O=C(Oc1ccc([N+](=O)[O-])cc1)N1CCC(C(O)(c2ccc3c(c2)OCO3)c2ccc3c(c2)OCO3)CC1 [JZL184] (first compound 0.016 µM, partner dose 1 µM)	153	162	33.4	111	123	90.8	71.8	85.6	224	28
